Experimental findings from publication PMC5102030 are described below.

Protein sequences, listed by entry. Tags and fused reporters are not part of them.
UniProt Q7Z6Z7: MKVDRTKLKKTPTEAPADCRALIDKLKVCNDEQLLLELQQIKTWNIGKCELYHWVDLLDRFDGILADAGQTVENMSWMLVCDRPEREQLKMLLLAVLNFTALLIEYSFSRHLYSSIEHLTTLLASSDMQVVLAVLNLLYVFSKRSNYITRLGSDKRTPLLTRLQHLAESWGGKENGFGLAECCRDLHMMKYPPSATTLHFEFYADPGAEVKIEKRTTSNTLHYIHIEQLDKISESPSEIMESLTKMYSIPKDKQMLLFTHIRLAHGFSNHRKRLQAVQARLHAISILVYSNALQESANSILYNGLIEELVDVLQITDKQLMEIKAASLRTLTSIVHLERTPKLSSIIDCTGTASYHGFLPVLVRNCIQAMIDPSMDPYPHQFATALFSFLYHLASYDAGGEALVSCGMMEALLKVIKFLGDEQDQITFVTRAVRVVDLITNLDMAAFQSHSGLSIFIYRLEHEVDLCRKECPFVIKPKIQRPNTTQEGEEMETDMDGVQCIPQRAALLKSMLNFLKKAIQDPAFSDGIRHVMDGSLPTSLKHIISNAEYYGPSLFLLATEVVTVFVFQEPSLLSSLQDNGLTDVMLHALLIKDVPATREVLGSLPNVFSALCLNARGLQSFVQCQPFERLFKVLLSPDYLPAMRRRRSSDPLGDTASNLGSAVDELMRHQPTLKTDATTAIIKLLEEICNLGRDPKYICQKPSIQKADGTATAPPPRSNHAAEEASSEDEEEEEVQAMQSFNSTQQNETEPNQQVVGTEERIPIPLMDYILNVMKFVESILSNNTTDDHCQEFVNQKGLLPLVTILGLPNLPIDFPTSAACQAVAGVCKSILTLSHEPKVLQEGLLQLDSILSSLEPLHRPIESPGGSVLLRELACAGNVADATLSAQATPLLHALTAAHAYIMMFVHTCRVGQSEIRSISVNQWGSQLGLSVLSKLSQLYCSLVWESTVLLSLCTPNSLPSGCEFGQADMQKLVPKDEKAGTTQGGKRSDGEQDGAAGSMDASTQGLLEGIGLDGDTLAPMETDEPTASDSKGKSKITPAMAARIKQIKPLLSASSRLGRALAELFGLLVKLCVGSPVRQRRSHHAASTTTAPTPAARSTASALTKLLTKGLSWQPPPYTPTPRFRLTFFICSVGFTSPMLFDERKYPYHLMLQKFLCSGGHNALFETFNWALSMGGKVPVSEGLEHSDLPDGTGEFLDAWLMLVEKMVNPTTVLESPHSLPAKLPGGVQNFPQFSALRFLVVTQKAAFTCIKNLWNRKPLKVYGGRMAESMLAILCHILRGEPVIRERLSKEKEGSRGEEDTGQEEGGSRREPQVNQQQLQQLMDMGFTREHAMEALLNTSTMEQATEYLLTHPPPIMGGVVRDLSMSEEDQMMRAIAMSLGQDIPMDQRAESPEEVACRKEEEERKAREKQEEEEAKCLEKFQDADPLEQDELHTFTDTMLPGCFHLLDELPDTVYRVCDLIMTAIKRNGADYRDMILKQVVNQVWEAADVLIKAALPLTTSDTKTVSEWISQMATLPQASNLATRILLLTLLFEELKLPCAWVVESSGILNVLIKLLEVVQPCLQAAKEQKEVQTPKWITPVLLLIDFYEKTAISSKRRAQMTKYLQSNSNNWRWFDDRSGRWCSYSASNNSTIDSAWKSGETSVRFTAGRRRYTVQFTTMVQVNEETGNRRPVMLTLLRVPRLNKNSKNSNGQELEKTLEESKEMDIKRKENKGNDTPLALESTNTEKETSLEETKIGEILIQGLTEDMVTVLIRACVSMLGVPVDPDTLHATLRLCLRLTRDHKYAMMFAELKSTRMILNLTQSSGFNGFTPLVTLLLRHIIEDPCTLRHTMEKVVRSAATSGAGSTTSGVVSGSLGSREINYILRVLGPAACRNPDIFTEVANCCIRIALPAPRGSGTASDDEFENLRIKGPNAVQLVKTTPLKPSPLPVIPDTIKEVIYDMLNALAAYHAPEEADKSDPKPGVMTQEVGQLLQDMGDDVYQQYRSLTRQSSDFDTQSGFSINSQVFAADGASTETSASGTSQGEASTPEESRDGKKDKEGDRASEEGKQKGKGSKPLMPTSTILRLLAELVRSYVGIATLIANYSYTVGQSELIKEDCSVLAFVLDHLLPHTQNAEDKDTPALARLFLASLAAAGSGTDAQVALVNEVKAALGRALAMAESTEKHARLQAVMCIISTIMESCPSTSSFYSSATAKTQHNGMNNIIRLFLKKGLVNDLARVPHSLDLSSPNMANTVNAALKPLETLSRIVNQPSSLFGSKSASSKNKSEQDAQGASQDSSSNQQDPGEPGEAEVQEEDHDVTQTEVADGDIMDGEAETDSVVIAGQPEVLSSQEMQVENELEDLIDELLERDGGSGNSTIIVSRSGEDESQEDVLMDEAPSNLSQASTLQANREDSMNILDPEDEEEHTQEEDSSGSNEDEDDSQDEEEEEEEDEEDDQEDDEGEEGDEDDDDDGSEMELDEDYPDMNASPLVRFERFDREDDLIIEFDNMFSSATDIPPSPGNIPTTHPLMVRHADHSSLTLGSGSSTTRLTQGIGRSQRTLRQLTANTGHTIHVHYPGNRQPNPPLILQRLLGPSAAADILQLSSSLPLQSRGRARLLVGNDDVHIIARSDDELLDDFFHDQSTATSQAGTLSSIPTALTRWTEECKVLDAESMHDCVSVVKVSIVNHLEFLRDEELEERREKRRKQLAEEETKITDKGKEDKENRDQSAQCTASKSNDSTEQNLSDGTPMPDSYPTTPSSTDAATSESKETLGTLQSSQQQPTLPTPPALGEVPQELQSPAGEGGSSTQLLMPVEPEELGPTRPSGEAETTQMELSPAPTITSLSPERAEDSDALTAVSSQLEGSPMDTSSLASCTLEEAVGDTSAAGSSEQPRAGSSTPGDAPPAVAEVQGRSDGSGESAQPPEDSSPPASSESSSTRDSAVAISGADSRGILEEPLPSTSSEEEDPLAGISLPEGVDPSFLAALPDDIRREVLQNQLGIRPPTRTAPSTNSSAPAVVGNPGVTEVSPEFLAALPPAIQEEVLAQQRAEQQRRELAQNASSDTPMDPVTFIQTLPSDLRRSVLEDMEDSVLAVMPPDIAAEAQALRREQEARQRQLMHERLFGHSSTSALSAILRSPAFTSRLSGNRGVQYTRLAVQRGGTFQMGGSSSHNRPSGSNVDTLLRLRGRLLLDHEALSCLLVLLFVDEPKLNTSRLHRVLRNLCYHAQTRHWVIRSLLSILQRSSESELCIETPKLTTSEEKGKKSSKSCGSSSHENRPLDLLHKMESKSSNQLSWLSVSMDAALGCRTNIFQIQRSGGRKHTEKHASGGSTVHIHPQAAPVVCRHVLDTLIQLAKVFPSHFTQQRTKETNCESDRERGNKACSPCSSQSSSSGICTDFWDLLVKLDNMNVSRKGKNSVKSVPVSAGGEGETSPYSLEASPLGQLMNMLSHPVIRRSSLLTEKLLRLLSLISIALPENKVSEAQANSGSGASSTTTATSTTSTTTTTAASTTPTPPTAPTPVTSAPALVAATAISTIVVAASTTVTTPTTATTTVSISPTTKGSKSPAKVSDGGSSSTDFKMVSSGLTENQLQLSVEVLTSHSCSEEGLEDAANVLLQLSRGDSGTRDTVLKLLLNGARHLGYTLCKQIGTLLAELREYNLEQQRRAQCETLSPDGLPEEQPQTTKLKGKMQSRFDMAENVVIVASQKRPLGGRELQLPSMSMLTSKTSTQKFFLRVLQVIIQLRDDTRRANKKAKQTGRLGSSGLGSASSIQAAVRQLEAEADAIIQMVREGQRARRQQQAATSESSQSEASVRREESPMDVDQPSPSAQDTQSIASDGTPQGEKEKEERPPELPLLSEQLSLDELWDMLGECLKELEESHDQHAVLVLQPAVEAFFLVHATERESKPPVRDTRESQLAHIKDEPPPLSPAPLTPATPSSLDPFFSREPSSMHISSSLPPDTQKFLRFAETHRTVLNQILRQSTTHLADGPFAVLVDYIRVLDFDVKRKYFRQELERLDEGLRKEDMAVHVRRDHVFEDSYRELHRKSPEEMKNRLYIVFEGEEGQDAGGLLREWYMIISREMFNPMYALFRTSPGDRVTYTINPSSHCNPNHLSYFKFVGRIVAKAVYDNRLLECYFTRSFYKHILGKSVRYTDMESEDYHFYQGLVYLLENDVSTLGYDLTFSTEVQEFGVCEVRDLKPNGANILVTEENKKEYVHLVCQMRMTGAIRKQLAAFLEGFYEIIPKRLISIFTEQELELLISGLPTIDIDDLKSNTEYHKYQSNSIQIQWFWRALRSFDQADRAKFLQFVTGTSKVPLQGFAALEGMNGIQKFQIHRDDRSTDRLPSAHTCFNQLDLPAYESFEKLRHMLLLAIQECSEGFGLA

Results are given in words; binding and its absence hold for the method and conditions named. Binding seen in cells or lysates may run through a third protein. Some results given as binding are weak or reduced against the parent protein; the word gives no strength.

In the test the target is T1, Ubl4A (UniProt P11441).
T1 sequence: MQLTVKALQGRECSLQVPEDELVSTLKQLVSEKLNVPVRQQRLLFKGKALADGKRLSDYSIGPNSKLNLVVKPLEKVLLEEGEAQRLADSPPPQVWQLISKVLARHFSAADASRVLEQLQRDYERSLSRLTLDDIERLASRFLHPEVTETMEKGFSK
Kind of test: co-IP; overexpressed substrate with endogenous HUWE1 (Supplementary Figure S5F); who was precipitated is not told.

For the substance “HUWE1 (HECT, UBA and WWE domain containing 1) (from UniProt Q7Z6Z7 1-4374) (enzyme)”, the binding result is “binds”.
